Values joined by “and” are separate entries in the source; they are usually repeats but may differ in a detail not shown here. Equal values may be shown once. The source gives many values for each of these; only a part stands here.
Test system: collagen-induced arthritis
Assay: Collagen-induced arthritis (CIA) model: clinical scores and paw volume; for Animal paw volume percent change (%): reference of the scale not given here
Format: in vivo, Lewis rats
Conditions: for Animal paw volume / Animal paw volume percent change (%): individual animals; for Overall Clinical Score: individual animals 1-8

In the case of Cn1cc(-c2ccccc2)c(-c2cn(C)c(=O)c3[nH]c(-c4cnn(C(F)(F)F)c4)cc23)cc1=O [Compound A, 6-methyl-4-(1-methyl-2-oxo-5-phenyl-1,2-dihydropyridin-4-yl)-2-(1-(trifluoromethyl)-1H-pyrazol-4-yl)-1,6-dihydro-7H-pyrrolo[2,3-c]pyridin-7-one], the Animal paw volume (Day 13, L paw, Group 7 (CIA + Compound A 10 mg/kg), 10 mg/kg) is reported as 1.37 mL and 1.36 mL and 1.43 mL and 1.41 mL and 1.66 mL and 1.39 mL and 1.32 mL and 1.38 mL, the Animal paw volume (Day 13, R paw, Group 5 (CIA + Compound A 1 mg/kg), 1 mg/kg) is reported as 1.40 mL and 1.38 mL and 1.36 mL and 1.44 mL (2×) and 1.58 mL and 1.37 mL and 1.52 mL and the Animal paw volume (Day 13, R paw, Group 6 (CIA + Compound A 3 mg/kg), 3 mg/kg) is reported as 1.37 mL (2×) and 1.36 mL (2×) and 1.43 mL and 1.39 mL and 1.38 mL and 1.54 mL. For the same compound, the Animal paw volume (Day 13, R paw, Group 7 (CIA + Compound A 10 mg/kg), 10 mg/kg) was 1.34 mL (2×) and 1.41 mL and 1.60 mL and 1.56 mL and 1.37 mL and 1.35 mL and 1.36 mL, the “Animal paw volume percent change (%)” value (Day 14, L paw, group 5 CIA + Compound A 1 mg/kg, 1 mg/kg) was 5.95% and 8.43% and 34.11% and 9.59% and 18.87% and 9.74% and 23.40% and 12.83% and the “Animal paw volume percent change (%)” value (Day 14, L paw, group 6 CIA + Compound A 3 mg/kg, 3 mg/kg) was 9.89% (2×) and 9.34% and 2.93% and 15.71% and 5.24% and 6.49% and 17.62%. For the same compound, the “Animal paw volume percent change (%)” value (Day 14, L paw, group 7 CIA + Compound A 10 mg/kg, 10 mg/kg) was 5.75% and 10.12% and 13.58% and 5.20% and 24.54% and 10.57% and 2.33% and 5.36%, the “Animal paw volume percent change (%)” value (Day 14, R paw, group 5 CIA + Compound A 1 mg/kg, 1 mg/kg) was 5.20% and 6.90% and 15.06% and 10.18% and 20.38% and 8.86% and 9.89% and 17.36% and the “Animal paw volume percent change (%)” value (Day 14, R paw, group 6 CIA + Compound A 3 mg/kg, 3 mg/kg) was 3.77% and 9.34% and 3.02% and 5.95% and 13.51% and 7.49% and 6.90% and 31.27%. The “Animal paw volume percent change (%)” value (Day 14, R paw, group 7 CIA + Compound A 10 mg/kg, 10 mg/kg) was 3.07% and 6.23% and 7.20% and 28.73% and 20.52% and 3.00% and 6.61% and 3.86%, the “Overall Clinical Score” value (Day 14, CIA + Compound A 3 mg/kg, 3 mg/kg) was 1 and 3 and the “Overall Clinical Score” value (Day 14, CIA + Compound A 10 mg/kg, 10 mg/kg) was 0 (5×) and 1 and 2 (2×). For the same compound, the Animal paw volume (Day 14, L paw, Group 5 (CIA + Compound A 1 mg/kg), 1 mg/kg) was 1.43 mL and 1.42 mL and 1.73 mL and 1.49 mL and 1.58 mL and 1.47 mL and 1.64 mL and 1.50 mL, the Animal paw volume (Day 14, L paw, Group 6 (CIA + Compound A 3 mg/kg), 3 mg/kg) was 1.45 mL (2×) and 1.41 mL (3×) and 1.51 mL and 1.40 mL and 1.54 mL and the Animal paw volume (Day 14, L paw, Group 7 (CIA + Compound A 10 mg/kg), 10 mg/kg) was 1.38 mL (2×) and 1.42 mL (2×) and 1.51 mL and 1.68 mL and 1.47 mL and 1.32 mL. For the same compound, the Animal paw volume (Day 14, R paw, Group 5 (CIA + Compound A 1 mg/kg), 1 mg/kg) was 1.42 mL and 1.40 mL and 1.49 mL and 1.52 mL and 1.60 mL and 1.48 mL and 1.45 mL and 1.56 mL, the Animal paw volume (Day 14, R paw, Group 6 (CIA + Compound A 3 mg/kg), 3 mg/kg) was 1.38 mL and 1.41 mL and 1.37 mL and 1.43 mL and 1.47 mL and 1.44 mL and 1.40 mL and 1.70 mL and the Animal paw volume (Day 14, R paw, Group 7 (CIA + Compound A 10 mg/kg), 10 mg/kg) was 1.35 mL (2×) and 1.37 mL (2×) and 1.42 mL and 1.73 mL and 1.62 mL and 1.38 mL. For the same compound, the “Animal paw volume percent change (%)” value (Day 15, L paw, group 5 CIA + Compound A 1 mg/kg, 1 mg/kg) was 5.95%, the “Animal paw volume percent change (%)” value (Day 15, L paw, group 6 CIA + Compound A 3 mg/kg, 3 mg/kg) was 13.36% and 19.54% and the “Animal paw volume percent change (%)” value (Day 15, L paw, group 7 CIA + Compound A 10 mg/kg, 10 mg/kg) was 23.75% and 10.12% and 15.09% and 31.23% and 28.62% and 11.32% and 9.34% and 6.13%. For the same compound, the “Animal paw volume percent change (%)” value (Day 15, R paw, group 5 CIA + Compound A 1 mg/kg, 1 mg/kg) was 5.95%, the “Animal paw volume percent change (%)” value (Day 15, R paw, group 6 CIA + Compound A 3 mg/kg, 3 mg/kg) was 6.90% and 30.89% and the “Animal paw volume percent change (%)” value (Day 15, R paw, group 7 CIA + Compound A 10 mg/kg, 10 mg/kg) was 15.33% and 9.34% (2×) and 5.68% and 31.72% and 33.96% and 1.50% and 6.95%. For the same compound, the “Overall Clinical Score” value (Day 15, CIA + Compound A 3 mg/kg, 3 mg/kg) was 3 and 2 (2×), the “Overall Clinical Score” value (Day 15, CIA + Compound A 10 mg/kg, 10 mg/kg) was 2 and 0 (4×) and 1 and 4 and 3 and the Animal paw volume (Day 15, L paw, Group 5 (CIA + Compound A 1 mg/kg), 1 mg/kg) was 1.43 mL. For the same compound, the Animal paw volume (Day 15, L paw, Group 6 (CIA + Compound A 3 mg/kg), 3 mg/kg) was 1.56 mL, the Animal paw volume (Day 15, L paw, Group 7 (CIA + Compound A 10 mg/kg), 10 mg/kg) was 1.62 mL and 1.42 mL and 1.53 mL and 1.77 mL and 1.73 mL and 1.48 mL and 1.41 mL and 1.39 mL and the Animal paw volume (Day 15, R paw, Group 5 (CIA + Compound A 1 mg/kg), 1 mg/kg) was 1.43 mL. For the same compound, the Animal paw volume (Day 15, R paw, Group 6 (CIA + Compound A 3 mg/kg), 3 mg/kg) was 1.40 mL and 1.70 mL, the Animal paw volume (Day 15, R paw, Group 7 (CIA + Compound A 10 mg/kg), 10 mg/kg) was 1.51 mL and 1.41 mL (2×) and 1.40 mL and 1.77 mL and 1.80 mL and 1.36 mL and 1.39 mL and the “Animal paw volume percent change (%)” value (Day 18, L paw, group 5 CIA + Compound A 1 mg/kg, 1 mg/kg) was 5.20%. The “Animal paw volume percent change (%)” value (Day 18, L paw, group 6 CIA + Compound A 3 mg/kg, 3 mg/kg) was 25.19% and 26.82%, the “Animal paw volume percent change (%)” value (Day 18, L paw, group 7 CIA + Compound A 10 mg/kg, 10 mg/kg) was 23.75% and 62.26% and 13.58% and 27.51% and 5.20% and 5.66% and 37.35% and 6.13% and the “Animal paw volume percent change (%)” value (Day 18, R paw, group 5 CIA + Compound A 1 mg/kg, 1 mg/kg) was 5.95%. The “Animal paw volume percent change (%)” value (Day 18, R paw, group 6 CIA + Compound A 3 mg/kg, 3 mg/kg) was 20.69% and 30.12%, the “Animal paw volume percent change (%)” value (Day 18, R paw, group 7 CIA + Compound A 10 mg/kg, 10 mg/kg) was 22.22% and 56.81% and 53.41% and 49.63% and 22.01% and 1.50% and 41.25% and 25.48% and the “Overall Clinical Score” value (Day 18, CIA + Compound A 10 mg/kg, 10 mg/kg) was 2 (3×) and 6 and 3 and 0 and 4 and 1. For the same compound, the Animal paw volume (Day 18, L paw, Group 5 (CIA + Compound A 1 mg/kg), 1 mg/kg) was 1.42 mL, the Animal paw volume (Day 18, L paw, Group 6 (CIA + Compound A 3 mg/kg), 3 mg/kg) was 1.64 mL and the Animal paw volume (Day 18, L paw, Group 7 (CIA + Compound A 10 mg/kg), 10 mg/kg) was 1.62 mL and 2.09 mL and 1.51 mL and 1.72 mL and 1.42 mL and 1.40 mL and 1.77 mL and 1.39 mL. For the same compound, the Animal paw volume (Day 18, R paw, Group 5 (CIA + Compound A 1 mg/kg), 1 mg/kg) was 1.43 mL, the Animal paw volume (Day 18, R paw, Group 6 (CIA + Compound A 3 mg/kg), 3 mg/kg) was 1.69 mL and the Animal paw volume (Day 18, R paw, Group 7 (CIA + Compound A 10 mg/kg), 10 mg/kg) was 1.60 mL and 2.02 mL and 2.03 mL and 2.01 mL and 1.64 mL and 1.36 mL and 1.82 mL and 1.63 mL. For the same compound, the “Animal paw volume percent change (%)” value (Day 19, L paw, group 5 CIA + Compound A 1 mg/kg, 1 mg/kg) was 3.72% and the “Animal paw volume percent change (%)” value (Day 19, L paw, group 6 CIA + Compound A 3 mg/kg, 3 mg/kg) was 26.22% and 20.99% and 28.35%.

— US20260217701A1, “SELECTIVE BET INHIBITORS AND USES THEREOF” (Tay Therapeutics Limited, priority 2022, published 2026)
